# Experimental data taken from the supplement of paper PMC8728848.
# The other results are listed elsewhere or left out.
# B1: EULS2 M1 (Oryza sativa) (protein)
# chain: MVYCRANPNYAMTARNGAVVLAPANPKDEYQHWIKDMRWSTSIKDEEGYPAFALVNKATGQAIKHSLGQSHPVRLVPYNPEVMDESVLWTESRDVGNGFRCIRMVNNIYLNFDAFHGDKYHGGVRDGTDIVLWKLCEGDNQRWKIQPYYILEQKLISEEDLNSAVDHHHHHH
# Assays:
# Assay in all cases: glycan array binding signal (z-score within array); higher = stronger binding
# Settings in all cases: glycan notation: IUPAC condensed, linker removed
# [1] = biological target: Neu5Ac(a2-3)GalNAc(b1-4)GlcNAc
# Outline: (§1)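 Arrays were curated from the Consortium for Functional Glycomics database, 3228 in total, and kept only where the protein sequence was available. Binding is expressed as a within-array Z-score. This score was averaged across arrays of the same protein sequence at different concentrations or buffers and across linkers, and negative values can be read as non-binding.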
# [2] = biological target: Neu5Ac(a2-3)[GalNAc(b1-4)]Gal(b1-4)Glc
# Outline: as §1
# [3] = biological target: Neu5Ac(a2-3)[GalNAc(b1-4)]Gal(b1-4)GlcNAc
# Outline: as §1
# [4] = biological target: Neu5Ac(a2-3)[GalNAc(b1-4)]Gal(b1-4)GlcNAc(b1-3)GalNAc
# Outline: as §1
# [5] = biological target: Neu5Ac(a2-3)[Neu5Ac(a2-6)]GalNAc
# Outline: as §1
# Neu5Ac(a2-6)Gal = biological target: Neu5Ac(a2-6)Gal
# Outline: as §1
# [6] = biological target: Neu5Ac(a2-6)Gal(b1-3)GlcNAc(b1-3)[Gal(b1-4)GlcNAc(b1-6)]Gal(b1-4)Glc
# Outline: as §1
# Neu5Ac(a2-6)Gal(b1-4)Glc = biological target: Neu5Ac(a2-6)Gal(b1-4)Glc
# Outline: as §1
# [7] = biological target: Neu5Ac(a2-6)Gal(b1-4)GlcNAc
# Outline: as §1
# [8] = biological target: Neu5Ac(a2-6)Gal(b1-4)GlcNAc(b1-2)Man
# Outline: as §1
# [9] = biological target: Neu5Ac(a2-6)Gal(b1-4)GlcNAc(b1-2)Man(a1-3)Man(b1-4)GlcNAc(b1-4)GlcNAc
# Outline: as §1
# [10] = biological target: Neu5Ac(a2-6)Gal(b1-4)GlcNAc(b1-2)Man(a1-3)[Gal(b1-4)GlcNAc(b1-2)Man(a1-6)]Man(b1-4)GlcNAc(b1-4)GlcNAc
# Outline: as §1
# [11] = biological target: Neu5Ac(a2-6)Gal(b1-4)GlcNAc(b1-2)Man(a1-3)[GlcNAc(b1-2)Man(a1-6)]Man(b1-4)GlcNAc(b1-4)GlcNAc
# Outline: as §1
# [12] = biological target: Neu5Ac(a2-6)Gal(b1-4)GlcNAc(b1-2)Man(a1-3)[GlcNAc(b1-4)][Neu5Ac(a2-6)Gal(b1-4)GlcNAc(b1-2)Man(a1-6)]Man(b1-4)GlcNAc(b1-4)GlcNAc
# Outline: as §1
# [13] = biological target: Neu5Ac(a2-6)Gal(b1-4)GlcNAc(b1-2)Man(a1-3)[Man(a1-6)]Man(b1-4)GlcNAc(b1-4)GlcNAc
# Outline: as §1
# [14] = biological target: Neu5Ac(a2-6)Gal(b1-4)GlcNAc(b1-2)Man(a1-3)[Neu5Ac(a2-3)Gal(b1-4)GlcNAc(b1-2)Man(a1-6)]Man(b1-4)GlcNAc(b1-4)GlcNAc
# Outline: as §1
# [15] = biological target: Neu5Ac(a2-6)Gal(b1-4)GlcNAc(b1-2)Man(a1-3)[Neu5Ac(a2-6)Gal(b1-4)GlcNAc(b1-2)Man(a1-6)]Man(b1-4)GlcNAc(b1-4)GlcNAc
# Outline: as §1
# [16] = biological target: Neu5Ac(a2-6)Gal(b1-4)GlcNAc(b1-2)Man(a1-3)[Neu5Ac(a2-6)Gal(b1-4)GlcNAc(b1-2)Man(a1-6)]Man(b1-4)GlcNAc(b1-4)[Fuc(a1-6)]GlcNAc
# Outline: as §1
# [17] = biological target: Neu5Ac(a2-6)Gal(b1-4)GlcNAc(b1-2)Man(a1-6)Man(b1-4)GlcNAc(b1-4)GlcNAc
# Outline: as §1
# [18] = biological target: Neu5Ac(a2-6)Gal(b1-4)GlcNAc(b1-2)Man(a1-6)[Gal(b1-4)GlcNAc(b1-2)Man(a1-3)]Man(b1-4)GlcNAc(b1-4)GlcNAc
# Outline: as §1
# [19] = biological target: Neu5Ac(a2-6)Gal(b1-4)GlcNAc(b1-2)Man(a1-6)[GlcNAc(b1-2)Man(a1-3)]Man(b1-4)GlcNAc(b1-4)GlcNAc
# Outline: as §1
# [20] = biological target: Neu5Ac(a2-6)Gal(b1-4)GlcNAc(b1-2)Man(a1-6)[Man(a1-3)]Man(b1-4)GlcNAc(b1-4)GlcNAc
# Outline: as §1
# [21] = biological target: Neu5Ac(a2-6)Gal(b1-4)GlcNAc(b1-2)[Neu5Ac(a2-6)Gal(b1-4)GlcNAc(b1-4)]Man(a1-3)[GlcNAc(b1-4)][Neu5Ac(a2-6)Gal(b1-4)GlcNAc(b1-2)[Neu5Ac(a2-6)Gal(b1-4)GlcNAc(b1-6)]Man(a1-6)]Man(b1-4)GlcNAc(b1-4)GlcNAc
# Outline: as §1
# [22] = biological target: Neu5Ac(a2-6)Gal(b1-4)GlcNAc(b1-2)[Neu5Ac(a2-6)Gal(b1-4)GlcNAc(b1-4)]Man(a1-3)[GlcNAc(b1-4)][Neu5Ac(a2-6)Gal(b1-4)GlcNAc(b1-4)Man(a1-6)]Man(b1-4)GlcNAc(b1-4)GlcNAc
# Outline: as §1
# [23] = biological target: Neu5Ac(a2-6)Gal(b1-4)GlcNAc(b1-2)[Neu5Ac(a2-6)Gal(b1-4)GlcNAc(b1-6)]Man(a1-6)[Neu5Ac(a2-6)Gal(b1-4)GlcNAc(b1-2)Man(a1-3)][GlcNAc(b1-4)]Man(b1-4)GlcNAc(b1-4)GlcNAc
# Outline: as §1
# [24] = biological target: Neu5Ac(a2-6)Gal(b1-4)GlcNAc(b1-3)Gal(b1-3)GlcNAc
# Outline: as §1
# [25] = biological target: Neu5Ac(a2-6)Gal(b1-4)GlcNAc(b1-3)Gal(b1-4)GlcNAc
# Outline: as §1
# [26] = biological target: Neu5Ac(a2-6)Gal(b1-4)GlcNAc(b1-3)Gal(b1-4)GlcNAc(b1-2)Man(a1-3)[Neu5Ac(a2-6)Gal(b1-4)GlcNAc(b1-3)Gal(b1-4)GlcNAc(b1-2)Man(a1-6)]GalNAc
# Outline: as §1
# [27] = biological target: Neu5Ac(a2-6)Gal(b1-4)GlcNAc(b1-3)Gal(b1-4)GlcNAc(b1-3)Gal(b1-4)GlcNAc
# Outline: as §1
# [28] = biological target: Neu5Ac(a2-6)Gal(b1-4)GlcNAc(b1-3)Gal(b1-4)GlcNAc(b1-3)Gal(b1-4)GlcNAc(b1-2)Man(a1-3)[Neu5Ac(a2-6)Gal(b1-4)GlcNAc(b1-3)Gal(b1-4)GlcNAc(b1-3)Gal(b1-4)GlcNAc(b1-2)Man(a1-6)]GalNAc
# Outline: as §1
# [29] = biological target: Neu5Ac(a2-6)Gal(b1-4)GlcNAc(b1-3)Gal(b1-4)GlcNAc(b1-3)GalNAc
# Outline: as §1
# [30] = biological target: Neu5Ac(a2-6)Gal(b1-4)GlcNAc(b1-3)Gal(b1-4)GlcNAc(b1-3)[Neu5Ac(a2-6)Gal(b1-4)GlcNAc(b1-3)Gal(b1-4)GlcNAc(b1-6)]GalNAc
# Outline: as §1
# [31] = biological target: Neu5Ac(a2-6)Gal(b1-4)GlcNAc(b1-3)Gal(b1-4)GlcNAc(b1-6)[Gal(b1-3)]GalNAc
# Outline: as §1
# [32] = biological target: Neu5Ac(a2-6)Gal(b1-4)GlcNAc(b1-3)Gal(b1-4)[Fuc(a1-3)]GlcNAc(b1-3)Gal(b1-4)[Fuc(a1-3)]GlcNAc
# Outline: as §1
# [33] = biological target: Neu5Ac(a2-6)Gal(b1-4)GlcNAc(b1-3)GalNAc
# Outline: as §1
# [34] = biological target: Neu5Ac(a2-6)Gal(b1-4)GlcNAc(b1-3)[Neu5Ac(a2-6)Gal(b1-4)GlcNAc(b1-6)]GalNAc
# Outline: as §1
# [35] = biological target: Neu5Ac(a2-6)Gal(b1-4)GlcNAc(b1-6)GalNAc
# Outline: as §1
# [36] = biological target: Neu5Ac(a2-6)Gal(b1-4)GlcNAc(b1-6)[Gal(b1-3)GlcNAc(b1-3)]Gal(b1-4)Glc
# Outline: as §1
binder,measurement,setting,value
B1,glycan array binding signal (z-score),[1],-0.339
same,glycan array binding signal (z-score),[2],0.542
same,glycan array binding signal (z-score),[3],0.157
same,glycan array binding signal (z-score),[4],0.893
same,glycan array binding signal (z-score),[5],-0.111
same,glycan array binding signal (z-score),Neu5Ac(a2-6)Gal,-0.345
same,glycan array binding signal (z-score),[6],-0.784
same,glycan array binding signal (z-score),Neu5Ac(a2-6)Gal(b1-4)Glc,-0.303
same,glycan array binding signal (z-score),[7],-0.618
same,glycan array binding signal (z-score),[8],-0.291
same,glycan array binding signal (z-score),[9],0.03
same,glycan array binding signal (z-score),[10],-0.083
same,glycan array binding signal (z-score),[11],-0.661
same,glycan array binding signal (z-score),[12],0.558
same,glycan array binding signal (z-score),[13],-0.402
same,glycan array binding signal (z-score),[14],-0.172
same,glycan array binding signal (z-score),[15],-0.134
same,glycan array binding signal (z-score),[16],-0.822
same,glycan array binding signal (z-score),[17],-0.753
same,glycan array binding signal (z-score),[18],-0.682
same,glycan array binding signal (z-score),[19],-0.209
same,glycan array binding signal (z-score),[20],-0.95
same,glycan array binding signal (z-score),[21],-0.902
same,glycan array binding signal (z-score),[22],-0.316
same,glycan array binding signal (z-score),[23],-0.432
same,glycan array binding signal (z-score),[24],-0.705
same,glycan array binding signal (z-score),[25],-0.613
same,glycan array binding signal (z-score),[26],0.102
same,glycan array binding signal (z-score),[27],-0.578
same,glycan array binding signal (z-score),[28],1.77
same,glycan array binding signal (z-score),[29],-0.801
same,glycan array binding signal (z-score),[30],1.49
same,glycan array binding signal (z-score),[31],0.283
same,glycan array binding signal (z-score),[32],1.21
same,glycan array binding signal (z-score),[33],0.427
same,glycan array binding signal (z-score),[34],-0.578
same,glycan array binding signal (z-score),[35],-0.939
same,glycan array binding signal (z-score),[36],-0.244

# Reprinted at random: 2 records from the list
binder,measurement,setting,value
B1,glycan array binding signal (z-score),[34],-0.578
same,glycan array binding signal (z-score),[15],-0.134
